# Reference: the supplement of paper PMC10849652
# Sequences of proteins named here, by UniProt entry; tags and fusion partners are left off. A change or cut given only in a name is not applied to a line headed by its entry.
# UniProt O43242, whole entry, looked up: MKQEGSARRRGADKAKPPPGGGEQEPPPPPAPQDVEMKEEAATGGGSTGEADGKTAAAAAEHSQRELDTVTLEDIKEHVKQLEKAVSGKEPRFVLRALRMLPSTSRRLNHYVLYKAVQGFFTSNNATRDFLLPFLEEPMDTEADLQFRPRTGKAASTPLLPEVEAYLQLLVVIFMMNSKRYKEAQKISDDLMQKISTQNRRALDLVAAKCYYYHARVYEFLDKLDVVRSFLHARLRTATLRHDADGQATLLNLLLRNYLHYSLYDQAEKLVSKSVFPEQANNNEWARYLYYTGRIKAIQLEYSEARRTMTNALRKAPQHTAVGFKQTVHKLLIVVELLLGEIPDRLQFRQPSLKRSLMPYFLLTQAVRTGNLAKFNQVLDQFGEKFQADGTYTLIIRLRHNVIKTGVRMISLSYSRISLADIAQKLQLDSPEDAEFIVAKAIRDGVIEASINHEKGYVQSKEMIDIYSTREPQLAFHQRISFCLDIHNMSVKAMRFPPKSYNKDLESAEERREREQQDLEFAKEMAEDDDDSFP
# UniProt P28072: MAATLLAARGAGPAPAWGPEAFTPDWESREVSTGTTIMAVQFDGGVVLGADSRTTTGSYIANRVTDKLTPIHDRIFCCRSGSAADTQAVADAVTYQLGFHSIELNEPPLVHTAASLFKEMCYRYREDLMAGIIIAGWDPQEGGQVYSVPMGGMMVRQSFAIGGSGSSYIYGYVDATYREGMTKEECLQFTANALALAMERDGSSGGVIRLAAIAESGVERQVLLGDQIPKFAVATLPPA
# UniProt Q14997: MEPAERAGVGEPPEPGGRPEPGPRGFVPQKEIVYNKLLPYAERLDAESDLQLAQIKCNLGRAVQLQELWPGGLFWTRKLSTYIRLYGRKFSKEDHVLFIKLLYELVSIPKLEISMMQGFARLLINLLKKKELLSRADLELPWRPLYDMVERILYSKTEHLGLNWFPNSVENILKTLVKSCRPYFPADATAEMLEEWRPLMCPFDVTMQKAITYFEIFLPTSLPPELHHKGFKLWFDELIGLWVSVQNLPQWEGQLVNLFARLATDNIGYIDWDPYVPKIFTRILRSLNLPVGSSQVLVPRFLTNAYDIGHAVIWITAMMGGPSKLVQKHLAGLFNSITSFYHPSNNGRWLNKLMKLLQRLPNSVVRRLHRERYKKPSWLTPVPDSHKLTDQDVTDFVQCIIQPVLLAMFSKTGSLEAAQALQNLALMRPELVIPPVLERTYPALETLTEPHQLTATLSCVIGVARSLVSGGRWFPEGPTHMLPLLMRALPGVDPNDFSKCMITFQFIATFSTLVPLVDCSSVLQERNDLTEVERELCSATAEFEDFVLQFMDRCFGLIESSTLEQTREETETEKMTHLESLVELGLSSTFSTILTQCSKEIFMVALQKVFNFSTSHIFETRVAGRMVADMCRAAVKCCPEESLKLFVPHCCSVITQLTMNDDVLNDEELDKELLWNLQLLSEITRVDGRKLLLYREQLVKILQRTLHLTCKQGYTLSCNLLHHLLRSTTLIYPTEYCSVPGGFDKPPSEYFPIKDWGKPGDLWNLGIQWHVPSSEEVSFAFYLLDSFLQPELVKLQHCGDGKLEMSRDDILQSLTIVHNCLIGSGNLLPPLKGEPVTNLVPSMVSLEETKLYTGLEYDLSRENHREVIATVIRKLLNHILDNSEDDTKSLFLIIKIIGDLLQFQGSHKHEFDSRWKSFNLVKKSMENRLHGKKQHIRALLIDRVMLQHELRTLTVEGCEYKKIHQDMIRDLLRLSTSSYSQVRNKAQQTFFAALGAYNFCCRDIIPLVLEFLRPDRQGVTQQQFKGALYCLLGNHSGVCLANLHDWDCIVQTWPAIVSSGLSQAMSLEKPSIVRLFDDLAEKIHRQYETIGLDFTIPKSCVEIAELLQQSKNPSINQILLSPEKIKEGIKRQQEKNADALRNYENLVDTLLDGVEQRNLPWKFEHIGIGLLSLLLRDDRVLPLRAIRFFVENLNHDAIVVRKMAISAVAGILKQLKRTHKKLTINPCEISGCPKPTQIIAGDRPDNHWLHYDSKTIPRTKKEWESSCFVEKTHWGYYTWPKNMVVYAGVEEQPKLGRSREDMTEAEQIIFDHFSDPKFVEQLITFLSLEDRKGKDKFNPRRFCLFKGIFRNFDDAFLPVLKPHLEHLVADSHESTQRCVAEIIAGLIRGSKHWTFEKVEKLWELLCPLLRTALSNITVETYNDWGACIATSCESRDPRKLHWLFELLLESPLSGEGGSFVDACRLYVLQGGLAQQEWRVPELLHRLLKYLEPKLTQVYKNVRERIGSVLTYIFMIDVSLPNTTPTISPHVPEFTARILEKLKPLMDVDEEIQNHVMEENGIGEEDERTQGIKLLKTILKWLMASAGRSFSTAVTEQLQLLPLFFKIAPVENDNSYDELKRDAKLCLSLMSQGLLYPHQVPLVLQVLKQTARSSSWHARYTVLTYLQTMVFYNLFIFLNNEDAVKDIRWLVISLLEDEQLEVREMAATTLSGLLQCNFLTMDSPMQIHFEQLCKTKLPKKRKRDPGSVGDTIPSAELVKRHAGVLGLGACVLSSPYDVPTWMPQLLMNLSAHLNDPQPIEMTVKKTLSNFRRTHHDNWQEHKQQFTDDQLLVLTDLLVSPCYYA
# UniProt Q15397: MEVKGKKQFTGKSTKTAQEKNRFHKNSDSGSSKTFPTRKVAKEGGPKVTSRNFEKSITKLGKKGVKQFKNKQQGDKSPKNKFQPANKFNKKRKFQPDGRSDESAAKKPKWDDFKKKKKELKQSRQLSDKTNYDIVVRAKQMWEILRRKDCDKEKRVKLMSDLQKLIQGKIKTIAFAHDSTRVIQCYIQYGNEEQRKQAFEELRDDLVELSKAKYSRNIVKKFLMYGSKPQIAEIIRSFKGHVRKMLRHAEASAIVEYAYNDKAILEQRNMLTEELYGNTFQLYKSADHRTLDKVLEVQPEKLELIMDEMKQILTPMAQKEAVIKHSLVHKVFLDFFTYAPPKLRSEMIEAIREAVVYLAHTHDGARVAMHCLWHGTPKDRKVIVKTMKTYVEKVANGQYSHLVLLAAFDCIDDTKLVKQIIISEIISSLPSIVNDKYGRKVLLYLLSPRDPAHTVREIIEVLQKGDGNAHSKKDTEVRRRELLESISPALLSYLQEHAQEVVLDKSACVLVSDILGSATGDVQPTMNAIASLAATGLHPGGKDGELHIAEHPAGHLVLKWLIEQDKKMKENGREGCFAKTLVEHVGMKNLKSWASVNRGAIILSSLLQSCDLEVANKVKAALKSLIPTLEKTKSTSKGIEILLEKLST
# UniProt P18433: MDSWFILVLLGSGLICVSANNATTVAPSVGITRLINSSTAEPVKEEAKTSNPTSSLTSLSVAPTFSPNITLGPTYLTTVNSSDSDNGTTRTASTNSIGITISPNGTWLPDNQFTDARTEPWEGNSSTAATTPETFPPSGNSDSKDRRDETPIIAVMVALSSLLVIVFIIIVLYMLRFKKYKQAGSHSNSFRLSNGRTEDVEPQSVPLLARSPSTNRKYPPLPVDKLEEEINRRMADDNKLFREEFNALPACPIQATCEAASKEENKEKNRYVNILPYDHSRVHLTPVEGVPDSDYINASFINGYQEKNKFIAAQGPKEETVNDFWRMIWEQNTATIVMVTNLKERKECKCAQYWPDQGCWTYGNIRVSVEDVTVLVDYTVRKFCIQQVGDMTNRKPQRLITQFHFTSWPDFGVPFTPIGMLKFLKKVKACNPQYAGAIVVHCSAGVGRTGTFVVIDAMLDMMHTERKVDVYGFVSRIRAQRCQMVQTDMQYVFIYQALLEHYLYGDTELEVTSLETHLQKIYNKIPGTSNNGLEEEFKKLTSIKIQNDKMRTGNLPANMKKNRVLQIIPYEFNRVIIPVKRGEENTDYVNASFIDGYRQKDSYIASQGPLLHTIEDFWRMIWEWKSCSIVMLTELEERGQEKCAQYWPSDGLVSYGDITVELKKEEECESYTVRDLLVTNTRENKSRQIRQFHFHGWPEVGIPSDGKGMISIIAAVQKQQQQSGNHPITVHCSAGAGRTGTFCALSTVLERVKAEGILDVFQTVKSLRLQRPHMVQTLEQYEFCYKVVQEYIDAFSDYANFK
# UniProt Q03393: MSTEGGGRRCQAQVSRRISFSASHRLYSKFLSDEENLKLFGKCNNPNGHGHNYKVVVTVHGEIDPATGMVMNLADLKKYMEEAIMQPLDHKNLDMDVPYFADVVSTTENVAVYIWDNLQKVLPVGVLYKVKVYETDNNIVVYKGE
# UniProt Q9H0K6: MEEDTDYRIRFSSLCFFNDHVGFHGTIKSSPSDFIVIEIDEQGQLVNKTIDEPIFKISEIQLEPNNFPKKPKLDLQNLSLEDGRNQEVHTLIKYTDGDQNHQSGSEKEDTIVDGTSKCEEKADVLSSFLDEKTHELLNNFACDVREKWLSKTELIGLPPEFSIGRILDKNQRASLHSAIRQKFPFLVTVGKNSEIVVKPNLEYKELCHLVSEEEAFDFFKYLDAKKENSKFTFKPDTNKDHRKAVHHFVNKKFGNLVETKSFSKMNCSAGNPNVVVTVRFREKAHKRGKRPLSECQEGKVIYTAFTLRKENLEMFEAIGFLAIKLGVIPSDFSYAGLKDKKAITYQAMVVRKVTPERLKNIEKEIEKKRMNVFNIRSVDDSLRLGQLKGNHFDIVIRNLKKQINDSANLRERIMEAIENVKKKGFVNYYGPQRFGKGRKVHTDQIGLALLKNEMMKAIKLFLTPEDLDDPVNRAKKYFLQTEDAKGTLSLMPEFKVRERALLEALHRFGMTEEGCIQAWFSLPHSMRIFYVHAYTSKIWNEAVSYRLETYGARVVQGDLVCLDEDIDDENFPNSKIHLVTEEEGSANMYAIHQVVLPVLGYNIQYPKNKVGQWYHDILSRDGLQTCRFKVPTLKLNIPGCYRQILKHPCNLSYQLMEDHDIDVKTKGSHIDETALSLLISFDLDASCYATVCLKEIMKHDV
# UniProt O00233: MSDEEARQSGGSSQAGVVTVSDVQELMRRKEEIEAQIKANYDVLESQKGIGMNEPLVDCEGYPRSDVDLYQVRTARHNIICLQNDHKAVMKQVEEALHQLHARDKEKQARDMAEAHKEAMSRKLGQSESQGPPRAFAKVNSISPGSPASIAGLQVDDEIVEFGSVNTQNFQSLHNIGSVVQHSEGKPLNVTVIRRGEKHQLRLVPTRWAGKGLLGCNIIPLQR
# UniProt Q8TB72: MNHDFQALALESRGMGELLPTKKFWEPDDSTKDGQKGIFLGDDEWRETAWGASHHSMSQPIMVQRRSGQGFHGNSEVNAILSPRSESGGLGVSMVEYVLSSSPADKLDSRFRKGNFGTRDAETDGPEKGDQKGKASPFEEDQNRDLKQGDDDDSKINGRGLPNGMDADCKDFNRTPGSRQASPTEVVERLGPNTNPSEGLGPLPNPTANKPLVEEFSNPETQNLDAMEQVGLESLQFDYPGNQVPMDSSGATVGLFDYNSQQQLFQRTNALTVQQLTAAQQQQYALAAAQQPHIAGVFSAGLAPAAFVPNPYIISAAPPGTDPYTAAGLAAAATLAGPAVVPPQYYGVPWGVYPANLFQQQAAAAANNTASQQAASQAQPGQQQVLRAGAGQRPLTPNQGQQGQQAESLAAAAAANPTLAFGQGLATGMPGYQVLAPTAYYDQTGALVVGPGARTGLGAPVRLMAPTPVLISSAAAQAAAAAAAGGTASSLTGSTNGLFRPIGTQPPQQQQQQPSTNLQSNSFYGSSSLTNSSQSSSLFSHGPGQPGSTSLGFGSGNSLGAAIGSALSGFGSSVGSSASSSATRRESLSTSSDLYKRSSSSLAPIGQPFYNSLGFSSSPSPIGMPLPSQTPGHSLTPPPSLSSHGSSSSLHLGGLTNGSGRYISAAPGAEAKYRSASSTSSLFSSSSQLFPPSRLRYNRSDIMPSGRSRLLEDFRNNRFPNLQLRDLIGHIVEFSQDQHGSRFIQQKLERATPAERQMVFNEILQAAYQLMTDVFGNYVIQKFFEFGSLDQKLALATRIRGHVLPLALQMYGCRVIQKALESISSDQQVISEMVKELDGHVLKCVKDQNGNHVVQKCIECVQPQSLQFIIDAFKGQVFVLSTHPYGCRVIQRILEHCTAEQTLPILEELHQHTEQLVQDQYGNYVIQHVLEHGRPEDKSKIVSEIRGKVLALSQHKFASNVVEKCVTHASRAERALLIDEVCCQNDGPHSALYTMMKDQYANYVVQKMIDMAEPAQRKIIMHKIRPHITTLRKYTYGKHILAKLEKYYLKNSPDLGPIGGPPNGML
# UniProt P28070, whole entry, looked up: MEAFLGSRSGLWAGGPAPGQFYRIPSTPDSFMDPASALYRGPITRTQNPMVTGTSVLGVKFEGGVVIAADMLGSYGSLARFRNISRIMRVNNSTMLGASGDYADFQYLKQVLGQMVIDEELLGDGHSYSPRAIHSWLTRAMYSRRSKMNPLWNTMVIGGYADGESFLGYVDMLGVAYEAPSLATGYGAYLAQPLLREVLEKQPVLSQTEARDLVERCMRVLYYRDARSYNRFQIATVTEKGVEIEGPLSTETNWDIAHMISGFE
# This is one part of the list.
# How the values were obtained:
# Assay in all cases: log2 fold change, soluble protein after heating vs DMSO (PISA); higher = thermal stabilisation; K562 lysate, 10 uM; active = over 0.2 and 3.5 SD of the protein, either way, in both replicates (recomputed)
# alvocidib = compound: CN1CC[C@H](c2c(O)cc(O)c3c(=O)cc(-c4ccccc4Cl)oc23)[C@H](O)C1 [alvocidib]
# In short: (§1)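 Thermal stability, expressed as log-two fold change relative to solvent controls, is given from duplicates. Crude K562 extract in PBS pH 7.4 with 1 mM MgCl2, at 1 mg/mL protein, was treated with 10 μM compound for 30 min and heated in aliquots for 3 min across 48°C-58°C. After pooling, adjustment to 0.5% NP-40 at 4°C and centrifugation at 21,000xg for 90 min, supernatant protein was measured by TMTpro 16plex LC-MS/MS with channel sums equalised.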
# Tubastatin A = compound: CN1CCc2c(c3ccccc3n2Cc2ccc(C(=O)NO)cc2)C1 [Tubastatin A]
# In short: as §1
# [1] = compound: CNC(=O)C1=CC=CC=C1NC2=NC(=NC=C2Cl)NC3=C(C=C(C=C3)N4CCOCC4)OC
# In short: as §1
# defactinib = compound: CNC(=O)c1ccc(Nc2ncc(C(F)(F)F)c(NCc3nccnc3N(C)S(C)(=O)=O)n2)cc1 [defactinib]
# In short: as §1
# [2] = compound: CNc1nc(-c2ccc3c(N)n[nH]c3c2)cc(N2C[C@@H](C(=O)NC3CCCCC3)CC[C@H]2C)n1
# In short: as §1
# encorafenib = compound: COC(=O)N[C@@H](C)CNc1nccc(-c2cn(C(C)C)nc2-c2cc(Cl)cc(NS(C)(=O)=O)c2F)n1 [encorafenib]
# In short: as §1
# [3] = compound: COC(=O)[C@H](CCSC)NC(=O)C1=C(C=C(C=C1)NC[C@H](CS)N)C2=CC=CC=C2
# In short: as §1
# alisertib = compound: COc1cc(Nc2ncc3c(n2)-c2ccc(Cl)cc2C(c2c(F)cccc2OC)=NC3)ccc1C(=O)O [alisertib]
# In short: as §1
# [4] = compound: COc1cc2nc(-c3cc(F)ccc3O)nc(N[C@@H]3CNC[C@H]3C(C)(C)O)c2cc1OC
# In short: as §1
# gefitinib = compound: COc1cc2ncnc(Nc3ccc(F)c(Cl)c3)c2cc1OCCCN1CCOCC1 [gefitinib]
# In short: as §1
# lapatinib = compound: CS(=O)(=O)CCNCc1ccc(-c2ccc3ncnc(Nc4ccc(OCc5cccc(F)c5)c(Cl)c4)c3c2)o1 [lapatinib]
# In short: as §1
# pictilisib = compound: CS(=O)(=O)N1CCN(Cc2cc3nc(-c4cccc5[nH]ncc45)nc(N4CCOCC4)c3s2)CC1 [pictilisib]
# In short: as §1
# crizotinib = compound: C[C@@H](Oc1cc(-c2cnn(C3CCNCC3)c2)cnc1N)c1c(Cl)ccc(F)c1Cl [crizotinib]
# In short: as §1
# [5] = compound: C[C@H](C1=CC=C(C=C1)C(=O)NC2=C3C=CNC3=NC=C2)N
# In short: as §1
# duvelisib = compound: C[C@H](Nc1ncnc2nc[nH]c12)c1cc2cccc(Cl)c2c(=O)n1-c1ccccc1 [duvelisib]
# In short: as §1
# gandotinib = compound: Cc1cc(Nc2cc(CN3CCOCC3)c3nc(C)c(Cc4ccc(Cl)cc4F)n3n2)n[nH]1 [gandotinib]
# In short: as §1
# tozasertib = compound: Cc1cc(Nc2cc(N3CCN(C)CC3)nc(Sc3ccc(NC(=O)C4CC4)cc3)n2)n[nH]1 [tozasertib]
# In short: as §1
# doramapimod = compound: Cc1ccc(-n2nc(C(C)(C)C)cc2NC(=O)Nc2ccc(OCCN3CCOCC3)c3ccccc23)cc1 [doramapimod]
# In short: as §1
# bafetinib = compound: Cc1ccc(NC(=O)c2ccc(CN3CC[C@H](N(C)C)C3)c(C(F)(F)F)c2)cc1Nc1nccc(-c2cncnc2)n1 [bafetinib]
# In short: as §1
# [6] = compound: Cc1cccc(CC(=O)N2CCc3c2ccc(-c2cn(C)c4ncnc(N)c24)c3F)n1
# In short: as §1
Target,log2 fold change (alvocidib),log2 fold change (Tubastatin A),log2 fold change [1],log2 fold change (defactinib),log2 fold change [2],log2 fold change (encorafenib),log2 fold change [3],log2 fold change (alisertib),log2 fold change [4],log2 fold change (gefitinib),log2 fold change (lapatinib),log2 fold change (pictilisib),log2 fold change (crizotinib),log2 fold change [5],log2 fold change (duvelisib),log2 fold change (gandotinib),log2 fold change (tozasertib),log2 fold change (doramapimod),log2 fold change (bafetinib),log2 fold change [6]
PSMD3 (UniProt O43242),inactive: 0.017,inactive: 0.008,inactive: -0.017,inactive: -0.001,inactive: 0.011,inactive: 0.022,inactive: 0.028,inactive: 0.014,inactive: 0,inactive: 0.006,inactive: -0.032,inactive: 0.005,inactive: 0.004,inactive: -0.008,inactive: -0.011,inactive: -0.044,inactive: -0.018,inactive: -0.005,inactive: -0.04,inactive: -0.016
PSMG2 (UniProt Q969U7),inactive: -0.027,inactive: 0.063,inactive: -0.004,inactive: 0.003,inactive: 0.002,inactive: 0.01,inactive: -0.053,inactive: 0.007,inactive: -0.004,inactive: -0.024,inactive: -0.008,inactive: -0.041,inactive: 0.012,inactive: -0.057,inactive: 0.036,inactive: 0.029,inactive: 0.01,inactive: 0.039,inactive: 0.065,inactive: -0.01
PSMG1 (UniProt O95456),inactive: -0.013,inactive: 0.027,inactive: -0.014,inactive: -0.021,inactive: -0.073,inactive: 0.03,inactive: -0.058,inactive: 0.006,inactive: 0.036,inactive: 0.035,inactive: 0.012,inactive: 0.057,inactive: 0.034,inactive: 0.001,inactive: 0.093,inactive: -0.01,inactive: 0.052,inactive: 0.039,inactive: 0.06,inactive: -0.026
PTGR2 (UniProt Q8N8N7),inactive: 0.018,inactive: -0.023,inactive: 0.02,inactive: 0.018,inactive: -0.021,inactive: -0.043,active: 0.694,inactive: 0.014,inactive: 0.004,inactive: -0.007,inactive: -0.003,inactive: 0.014,inactive: -0.029,inactive: -0.04,inactive: 0.02,inactive: 0.01,inactive: 0.04,inactive: -0.04,inactive: -0.003,inactive: -0.004
PSMB6 (UniProt P28072),inactive: -0.025,inactive: 0.017,inactive: 0.01,inactive: -0.054,inactive: -0.055,inactive: 0.003,inactive: -0.009,inactive: -0.028,inactive: -0.011,inactive: 0.027,inactive: 0.014,inactive: -0.008,inactive: 0.03,inactive: -0.074,inactive: 0.053,inactive: 0.008,inactive: -0.019,inactive: 0.018,inactive: 0.02,inactive: 0.01
PSME4 (UniProt Q14997),inactive: -0.039,inactive: -0.076,inactive: 0.014,inactive: 0.029,inactive: 0.013,inactive: 0.038,inactive: 0.017,inactive: 0.023,inactive: -0.01,inactive: -0.002,inactive: -0.015,inactive: -0.015,inactive: -0.078,inactive: -0.112,inactive: 0.004,inactive: 0.046,inactive: 0.03,inactive: 0.018,inactive: -0.022,inactive: 0.099
PTGES2 (UniProt Q9H7Z7),inactive: 0.015,inactive: -0.169,inactive: 0.122,inactive: -0.075,inactive: 0.322,inactive: -0.127,inactive: 0.098,inactive: -0.026,inactive: -0.248,inactive: 0.245,active: 0.637,inactive: 0.153,inactive: -0.052,inactive: -0.013,inactive: 0.029,inactive: 0.236,inactive: 0.329,inactive: 0.341,inactive: 0.176,inactive: 0.009
PUM3 (UniProt Q15397),inactive: -0.012,inactive: 0.009,inactive: -0.098,inactive: -0.005,inactive: -0.017,inactive: 0.038,inactive: -0.03,inactive: -0.004,inactive: -0.007,inactive: -0.031,inactive: -0.049,inactive: -0.03,inactive: 0.003,inactive: 0.03,inactive: 0.076,inactive: -0.126,inactive: 0.013,inactive: -0.012,inactive: -0.107,inactive: 0.05
PTPRA (UniProt P18433),inactive: 0.071,inactive: 0.029,inactive: -0.013,inactive: 0.034,inactive: 0.003,inactive: 0.025,inactive: -0.023,inactive: 0.05,inactive: 0.019,inactive: 0.029,inactive: -0.029,inactive: -0.041,inactive: 0.003,inactive: 0.014,inactive: 0.046,inactive: -0.029,inactive: -0.035,inactive: 0.079,inactive: -0.054,inactive: -0.011
PSEN1 (UniProt P49768),inactive: 0.064,inactive: 0.006,inactive: 0.038,inactive: -0.01,inactive: 0.116,inactive: -0.084,inactive: 0.154,inactive: -0.064,inactive: 0.023,inactive: 0.16,inactive: -0.022,inactive: -0.017,inactive: -0.043,inactive: 0.223,inactive: -0.007,inactive: -0.091,inactive: 0.044,inactive: -0.081,inactive: 0.021,inactive: -0.085
PTS (UniProt Q03393),inactive: -0.055,inactive: -0.007,inactive: 0.043,inactive: -0.059,inactive: 0.015,inactive: 0.1,inactive: -0.022,inactive: -0.009,inactive: 0.016,inactive: 0.121,inactive: -0.018,inactive: 0.008,inactive: 0.051,inactive: -0.024,inactive: 0.051,inactive: -0.039,inactive: 0.031,inactive: -0.069,inactive: 0,inactive: 0.05
PUS7L (UniProt Q9H0K6),inactive: -0.027,inactive: 0.005,inactive: 0.031,inactive: -0.019,inactive: 0.021,inactive: 0.003,inactive: 0,inactive: -0.015,inactive: -0.001,inactive: 0.02,inactive: -0.019,inactive: 0.018,inactive: 0.023,inactive: -0.057,inactive: -0.006,inactive: 0.028,inactive: -0.017,inactive: -0.002,inactive: -0.047,inactive: 0.061
PSMD9 (UniProt O00233),inactive: -0.011,inactive: -0.007,inactive: 0.038,inactive: -0.018,inactive: 0.028,inactive: -0.013,inactive: -0.036,inactive: -0.024,inactive: -0.028,inactive: -0.02,inactive: 0.016,inactive: 0.032,inactive: -0.007,inactive: -0.099,inactive: 0.005,inactive: 0.026,inactive: -0.023,inactive: 0.022,inactive: -0.03,inactive: 0.015
PUM2 (UniProt Q8TB72),inactive: -0.031,inactive: -0.022,inactive: -0.069,inactive: 0.054,inactive: 0.065,inactive: 0.062,inactive: 0.02,inactive: 0.031,inactive: 0.035,inactive: 0.049,inactive: -0.009,inactive: -0.101,inactive: 0.054,inactive: 0.094,inactive: -0.044,inactive: -0.15,inactive: 0.031,inactive: -0.136,inactive: 0.034,inactive: -0.016
PSMB4 (UniProt P28070),inactive: -0.02,inactive: 0.061,inactive: -0.034,inactive: -0.014,inactive: 0.017,inactive: -0.007,inactive: -0.018,inactive: 0.023,inactive: 0.017,inactive: -0.015,inactive: -0.049,inactive: -0.002,inactive: -0.029,inactive: -0.02,inactive: 0.044,inactive: 0.026,inactive: -0.033,inactive: 0.029,inactive: 0.012,inactive: 0.011

# Rewritten as tab-separated lines: part of the list above.
Target	log2 fold change (alvocidib)	log2 fold change (Tubastatin A)	log2 fold change [1]	log2 fold change (defactinib)	log2 fold change [2]	log2 fold change (encorafenib)	log2 fold change [3]	log2 fold change (alisertib)	log2 fold change [4]	log2 fold change (gefitinib)	log2 fold change (lapatinib)	log2 fold change (pictilisib)	log2 fold change (crizotinib)	log2 fold change [5]	log2 fold change (duvelisib)	log2 fold change (gandotinib)	log2 fold change (tozasertib)	log2 fold change (doramapimod)	log2 fold change (bafetinib)	log2 fold change [6]
PTPRA (UniProt P18433)	inactive: 0.071	inactive: 0.029	inactive: -0.013	inactive: 0.034	inactive: 0.003	inactive: 0.025	inactive: -0.023	inactive: 0.05	inactive: 0.019	inactive: 0.029	inactive: -0.029	inactive: -0.041	inactive: 0.003	inactive: 0.014	inactive: 0.046	inactive: -0.029	inactive: -0.035	inactive: 0.079	inactive: -0.054	inactive: -0.011
PSEN1 (UniProt P49768)	inactive: 0.064	inactive: 0.006	inactive: 0.038	inactive: -0.01	inactive: 0.116	inactive: -0.084	inactive: 0.154	inactive: -0.064	inactive: 0.023	inactive: 0.16	inactive: -0.022	inactive: -0.017	inactive: -0.043	inactive: 0.223	inactive: -0.007	inactive: -0.091	inactive: 0.044	inactive: -0.081	inactive: 0.021	inactive: -0.085
